Laboratory results from patent US20080242590A1, “New Method 706” (ASTRAZENECA AB, priority 2007, published 2008).
Some of these results come from one statement about several compounds together.

Test system: amyloid β peptide 1-42 (Aβ42)
Experiment: Ex-vivo degradation of Aβ42 in guinea pig plasma
Type: biochemical
Details: 5 μg/ml, 4 h
Description: Degradation of amyloid β peptide 1-40 (Aβ40) and amyloid β peptide 1-42 (Aβ42) by neprilysin was investigated using heparinized plasma from male Dunkin Hartley guinea pigs, weighing 250-300 g (HBLidkoping ka). Blood was withdrawn from anaesthetized guinea pigs by heart puncture. The blood were collected into prechilled heparin-plasma tubes and centrifuged for 10 min at 4° C. at 3000×g within 20 minutes of sampling. Plasma samples were transferred to pre-chilled polypropylene tubes and immediately frozen on dry ice and stored at −70° C. prior to use. The experiments were performed on a pool of plasma from seven guinea pigs. His-Fc-Nep (6 μg/ml or 208 μg/ml) or 5 μg/ml recombinant human Neprilysin (R&D systems) with corresponding vehicles (50 mM Tris-HCl, 150 mM NaCl pH 7.5 or 25 mM Tris-HCl, 0.1 M NaCl pH 8.0) were incubated with a pool of plasma in presence or absence of 10 μM phosphoramidon (BIOMOL) at 37° C. for 0 and 4 h. A final concentration of 4.7 mM EDTA was added into the tubes before the amount of Aβ40 and Aβ42 was analysed using a commercial ELISA kit obtained from Biosource (Aβ1-40) or Innogenetics (Aβ1-42).

B1: Recombinant human Neprilysin: commercially available Recombinant Human Neprilysin (R&D Systems), positive control (protein)
chain: YDDGICKSSDCIKSAARLIQNMDATTEPCTDFFKYACGGWLKRNVIPETSSRYGNFDILRDELEVVLKDVLQEPKTEDIVAVQKAKALYRSCINESAIDSRGGEPLLKLLPDIYGWPVATENWEQKYGASWTAEKAIAQLNSKYGKKVLINLFVGTDDKNSVNHVIHIDQPRLGLPSRDYYECTGIYKEACTAYVDFMISVARLIRQEERLPIDENQLALEMNKVMELEKEIANATAKPEDRNDPMLLYNKMTLAQIQNNFSLEINGKPFSWLNFTNEIMSTVNISITNEEDVVVYAPEYLTKLKPILTKYSARDLQNLMSWRFIMDLVSSLSRTYKESRNAFRKALYGTTSETATWRRCANYVNGNMENAVGRLYVEAAFAGESKHVVEDLIAQIREVFIQTLDDLTWMDAETKKRAEEKALAIKERIGYPDDIVSNDNKLNNEYLELNYKEDEYFENIIQNLKFSQSKQLKKLREKVDKDEWISGAAVVNAFYSSGRNQIVFPAGILQPPFFSAQQSNSLNYGGIGMVIGHEITHGFDDNGRNFNKDGDLVDWWTQQSASNFKEQSQCMVYQYGNFSWDLAGGQHLNGINTLGENIADNGGLGQAYRAYQNYIKKNGEEKLLPGLDLNHKQLFFLNFAQVWCGTYRPEYAVNSIKTDVHSPGNFRIIGTLQNSAEFSEAFHCRKNSYMNPEKKCRVW
Reduction of Aβ42 levels compared to vehicle: more than 57%
